# Source: publication PMC10638354
# The chains behind the UniProt entries cited, without tags or fusion partners.
# UniProt P04608: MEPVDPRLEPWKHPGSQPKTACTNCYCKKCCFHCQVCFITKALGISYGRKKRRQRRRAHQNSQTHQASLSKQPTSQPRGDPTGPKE
# No constants are given. Whether binding was seen depends on the method and setting. For some of these results: Binding seen in cells or lysates may run through a third protein. Some results given as binding are weak or reduced against the parent protein; the word gives no strength. For some of these results: Sequences can lack the tags named with a protein.
# Tests used:
# [1] = target: T1, AFF4 ectopically expressed in cells (UniProt Q9UHB7); experiment: co-IP; in cells; cell line and constructs not named in the text (Supplementary Fig. 6k-l, 7a, b, f); for Tat and NPM1 with PRMT2 expressed or depleted
# T1 sequence: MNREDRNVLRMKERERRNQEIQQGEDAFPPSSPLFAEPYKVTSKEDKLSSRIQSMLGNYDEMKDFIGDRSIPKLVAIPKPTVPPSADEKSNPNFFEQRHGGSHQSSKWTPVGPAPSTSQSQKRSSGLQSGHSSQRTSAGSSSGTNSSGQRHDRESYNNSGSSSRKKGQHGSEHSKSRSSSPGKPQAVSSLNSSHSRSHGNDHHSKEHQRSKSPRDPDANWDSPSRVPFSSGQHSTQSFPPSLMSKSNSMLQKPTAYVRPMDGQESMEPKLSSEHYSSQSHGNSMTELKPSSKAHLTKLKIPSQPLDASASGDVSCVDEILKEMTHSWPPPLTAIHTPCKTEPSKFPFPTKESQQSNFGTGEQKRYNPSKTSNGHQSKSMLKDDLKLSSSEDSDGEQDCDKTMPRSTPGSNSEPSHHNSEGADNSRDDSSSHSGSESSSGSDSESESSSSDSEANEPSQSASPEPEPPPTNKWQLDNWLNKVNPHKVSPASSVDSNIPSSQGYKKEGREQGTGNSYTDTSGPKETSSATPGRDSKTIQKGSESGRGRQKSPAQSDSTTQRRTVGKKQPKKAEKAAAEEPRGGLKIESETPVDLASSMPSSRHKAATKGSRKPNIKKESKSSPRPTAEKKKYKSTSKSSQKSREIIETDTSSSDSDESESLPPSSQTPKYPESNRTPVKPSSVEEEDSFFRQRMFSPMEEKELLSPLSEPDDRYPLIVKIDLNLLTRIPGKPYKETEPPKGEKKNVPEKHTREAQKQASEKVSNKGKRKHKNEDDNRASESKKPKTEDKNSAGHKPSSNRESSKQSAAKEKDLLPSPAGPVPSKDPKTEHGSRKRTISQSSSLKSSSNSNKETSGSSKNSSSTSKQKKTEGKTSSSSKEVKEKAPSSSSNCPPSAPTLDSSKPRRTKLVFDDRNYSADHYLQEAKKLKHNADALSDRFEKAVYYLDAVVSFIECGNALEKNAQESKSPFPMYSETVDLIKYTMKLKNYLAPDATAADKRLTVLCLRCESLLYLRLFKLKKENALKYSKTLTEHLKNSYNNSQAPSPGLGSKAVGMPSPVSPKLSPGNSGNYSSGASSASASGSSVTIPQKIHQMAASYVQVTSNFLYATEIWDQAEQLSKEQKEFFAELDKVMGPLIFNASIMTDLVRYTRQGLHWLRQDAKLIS
# recombinant AFF4 = target: T2, recombinant AFF4 (UniProt Q9UHB7); experiment: pull-down; GST or GST fusion proteins (Rosetta) immobilized on glutathione sepharose 4B beads, incubated 3 h at 4 °C with His-tagged proteins (Rosetta, Ni-NTA) in RIPA buffer with 1 mM MgCl2; washed with RIPA buffer; Coomassie staining or western blotting; both purified
# T2 sequence: T1 sequence
# [2] = target: recombinant AFF4 (E61A, M62A and F65A) (UniProt Q9UHB7); experiment: as above
# GST-PRMT2 = target: T3, GST-PRMT2 (UniProt P55345); experiment: as above
# T3 sequence: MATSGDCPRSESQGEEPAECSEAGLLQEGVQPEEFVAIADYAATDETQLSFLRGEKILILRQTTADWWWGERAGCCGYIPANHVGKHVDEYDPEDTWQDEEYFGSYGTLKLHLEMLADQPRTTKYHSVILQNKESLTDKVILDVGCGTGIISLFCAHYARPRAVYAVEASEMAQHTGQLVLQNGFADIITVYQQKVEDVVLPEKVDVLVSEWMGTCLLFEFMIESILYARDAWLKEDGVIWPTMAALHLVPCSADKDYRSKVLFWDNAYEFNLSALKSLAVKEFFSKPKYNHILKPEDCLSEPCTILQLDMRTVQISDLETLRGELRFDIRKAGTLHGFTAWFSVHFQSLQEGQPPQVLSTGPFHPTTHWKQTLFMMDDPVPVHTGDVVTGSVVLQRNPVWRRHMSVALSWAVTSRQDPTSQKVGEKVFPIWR
Substance,binding [1],binding (recombinant AFF4),binding [2],binding (GST-PRMT2)
Flag-Tat (HIV-1 Tat) (from UniProt P04608 1-86),binds,,,
recombinant his-Tat (from UniProt P04608 1-86),,binds,no binding,binds
